We go through one molecule from patent publication US8440666B2, “Pyridazinone compounds and P2X7 receptor inhibitors” (Nissan Chemical Industries, Ltd., priority 2007, dated 2013).

Protein sequences, listed by entry. Tags and fused reporters are not part of them.
UniProt Q99572, whole entry: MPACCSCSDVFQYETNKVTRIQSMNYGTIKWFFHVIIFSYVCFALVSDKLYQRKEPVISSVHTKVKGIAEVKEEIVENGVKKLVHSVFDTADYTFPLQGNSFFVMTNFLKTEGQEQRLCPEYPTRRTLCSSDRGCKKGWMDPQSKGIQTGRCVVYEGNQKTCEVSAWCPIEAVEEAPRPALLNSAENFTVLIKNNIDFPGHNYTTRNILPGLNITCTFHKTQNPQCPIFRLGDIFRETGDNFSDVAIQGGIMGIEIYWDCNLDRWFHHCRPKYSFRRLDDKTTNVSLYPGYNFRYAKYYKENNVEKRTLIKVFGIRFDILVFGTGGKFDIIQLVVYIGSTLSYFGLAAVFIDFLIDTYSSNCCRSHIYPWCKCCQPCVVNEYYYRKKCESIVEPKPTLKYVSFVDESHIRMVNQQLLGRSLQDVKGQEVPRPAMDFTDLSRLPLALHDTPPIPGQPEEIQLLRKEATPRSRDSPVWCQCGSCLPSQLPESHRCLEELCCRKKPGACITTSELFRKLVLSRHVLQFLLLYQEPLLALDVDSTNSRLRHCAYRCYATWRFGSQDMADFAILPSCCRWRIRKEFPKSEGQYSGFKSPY

The experiment concerns the target Human P2X7 (hP2X7) receptor (Homo sapiens, UniProt Q99572). Put plainly: Dye assay: BzATP-induced Yo-Pro-1 uptake in HEK293 cells stably expressing hP2X7. The following applies: BzATP (0.1 mM)-induced Yo-Pro-1 uptake, compounds 30 min pre-treatment, 90 min incubation. The source says: Human P2X7 (hP2×7) was cloned from a normal human brain total RNA library by reverse transcription (using SuperScript II (Invitrogen)) and PCR (using KOD-plus-(TOYOBO)). PCR primers were designed according to hP2X7 sequence registered in GENBANK with a putative amino acid sequence consisting of 595 amino acid residues. The PCR fragments were inserted into pcDNA3.1/myc-HisA vector (Invitrogen) and sequenced for confirmation.
HEK293 cells were transfected with hP2×7/pcDNA3.1/myc-HisA by lipofection, and 1 day later, the cells were treated with 1 mg/mL G418, and resistant cells were selected by appropriately dilution. The resistant cells were cloned by reseeding at a low density.
P2X7 receptor antagonists were screened by a dye uptake assay using HEK293 cells stably expressing hP2×7. […] Then, the fluorescence (indicating the BzATP-induced Yo-Pro-1 uptake mediated by the P2X7 receptor) was measured with a microplate reader (excitation wavelength: 485 nm, emission wavelength: 535 nm). The % inhibition rates were calculated and plotted against the logarithms of the concentrations to determine IC50.

The match of structure and compound is tentative.

Take `CCCCCCCCCCCCCCCCNc1cnn(CC(=O)NCc2ccncc2)c(=O)c1Br`: the half-inhibitory concentration (IC50) is 320 nM.

What is called IC50 is the point on the concentration scale where inhibition reaches its midpoint.
